In the test the target is T1, Dyn2^WT-eGFP (UniProt P50570).
T1 sequence: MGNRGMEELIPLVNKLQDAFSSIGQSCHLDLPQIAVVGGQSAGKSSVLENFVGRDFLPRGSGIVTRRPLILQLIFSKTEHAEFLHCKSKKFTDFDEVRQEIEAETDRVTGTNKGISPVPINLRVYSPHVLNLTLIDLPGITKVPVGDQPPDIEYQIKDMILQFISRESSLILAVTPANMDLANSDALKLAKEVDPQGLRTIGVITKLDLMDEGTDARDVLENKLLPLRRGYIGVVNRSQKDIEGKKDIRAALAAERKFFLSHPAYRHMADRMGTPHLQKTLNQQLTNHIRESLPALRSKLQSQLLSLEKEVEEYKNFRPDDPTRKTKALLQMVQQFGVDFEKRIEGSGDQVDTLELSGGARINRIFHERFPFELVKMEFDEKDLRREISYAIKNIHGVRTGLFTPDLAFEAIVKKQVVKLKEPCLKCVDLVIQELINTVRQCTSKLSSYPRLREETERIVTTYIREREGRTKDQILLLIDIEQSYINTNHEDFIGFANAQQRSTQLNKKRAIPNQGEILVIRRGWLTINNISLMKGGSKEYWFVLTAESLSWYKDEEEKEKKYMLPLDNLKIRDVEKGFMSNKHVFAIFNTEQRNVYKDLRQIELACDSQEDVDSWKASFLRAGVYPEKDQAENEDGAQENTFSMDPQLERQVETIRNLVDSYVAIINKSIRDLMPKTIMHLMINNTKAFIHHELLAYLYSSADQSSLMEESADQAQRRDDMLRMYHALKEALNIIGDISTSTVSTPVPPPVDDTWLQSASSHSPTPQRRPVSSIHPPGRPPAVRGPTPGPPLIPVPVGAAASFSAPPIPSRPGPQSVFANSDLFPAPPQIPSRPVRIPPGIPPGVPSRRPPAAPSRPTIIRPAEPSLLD
The test is described as follows: co-IP; GFP-nAb agarose, 0.5 mg A549 post-nuclear fraction, 2 h at 4 °C; beads washed with buffer 3 (0.5% Triton X-100, 25 mM HEPES, 150 mM KCl, 1 mM MgCl2, 2 mM EGTA, pH 7.4); immunoblot. Background: A western blot detects proteins with antibodies after separation by electrophoresis.

Chains of the proteins cited; added tags and fusions are not shown.
UniProt Q9Y5X1: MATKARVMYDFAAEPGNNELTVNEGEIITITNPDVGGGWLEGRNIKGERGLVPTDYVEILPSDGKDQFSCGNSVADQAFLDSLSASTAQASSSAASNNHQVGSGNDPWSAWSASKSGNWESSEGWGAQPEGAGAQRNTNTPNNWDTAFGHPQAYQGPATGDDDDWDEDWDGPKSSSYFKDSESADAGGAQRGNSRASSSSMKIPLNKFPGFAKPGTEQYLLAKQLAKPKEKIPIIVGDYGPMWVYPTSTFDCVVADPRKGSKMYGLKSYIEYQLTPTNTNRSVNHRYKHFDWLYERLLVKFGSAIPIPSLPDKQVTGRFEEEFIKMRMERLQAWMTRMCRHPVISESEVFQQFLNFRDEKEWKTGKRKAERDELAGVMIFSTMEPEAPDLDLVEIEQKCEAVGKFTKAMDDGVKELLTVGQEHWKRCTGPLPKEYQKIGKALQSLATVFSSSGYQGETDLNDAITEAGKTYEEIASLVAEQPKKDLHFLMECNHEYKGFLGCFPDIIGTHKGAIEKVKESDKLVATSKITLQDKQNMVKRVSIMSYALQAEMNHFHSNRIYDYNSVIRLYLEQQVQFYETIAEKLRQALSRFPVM

These are yes or no findings as the source states them, for the method shown. In cells and extracts the contact can be indirect. Some binding calls cover weakened binding; strength is not graded here. Sequences can lack the tags named with a protein.

“sorting nexin 9, endogenous in A549 cells (from UniProt Q9Y5X1 1-595)”: the binding result is recorded as “binds”.

Source of the values: paper PMC5927468.
